Assay results published in the supplement of paper PMC3334620.
In all, about 33,000 sequences were measured (“E-score (-0.5 to 0.5)”: median about -0.0014, highest 2% from about 0.25 on). This is one part of the list.

Biological target: T1, Cad1 (UniProt P24813)
T1 sequence: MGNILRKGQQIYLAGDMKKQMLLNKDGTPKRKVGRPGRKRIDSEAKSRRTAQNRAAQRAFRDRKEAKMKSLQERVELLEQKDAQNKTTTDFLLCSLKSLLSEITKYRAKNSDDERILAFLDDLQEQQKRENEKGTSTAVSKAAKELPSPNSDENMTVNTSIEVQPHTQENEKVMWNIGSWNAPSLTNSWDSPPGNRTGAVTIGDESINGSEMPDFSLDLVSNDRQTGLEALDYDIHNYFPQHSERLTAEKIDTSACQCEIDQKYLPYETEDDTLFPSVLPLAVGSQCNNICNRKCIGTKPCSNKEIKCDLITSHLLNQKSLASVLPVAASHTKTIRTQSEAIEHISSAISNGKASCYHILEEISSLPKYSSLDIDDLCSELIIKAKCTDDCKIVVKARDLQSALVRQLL
Test: PBM E-score (8-mer binding enrichment) (E-score (-0.5 to 0.5)); higher = stronger / more preferred TF binding
Conditions: protein concentration: 100 nM; construct: GST-full length
Procedure, shortened: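 Masliner-normalised scans of fluorescent anti-GST signal were the basis for scoring. That signal came from GST-tagged yeast transcription factors applied at about 100-200 nM to double-stranded universal all-10-mer Agilent arrays on fresh or once-stripped slides. Each ungapped eight-base word, pooled with its reverse complement, received an E-score from the Universal PBM Analysis Suite.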

Sequence	PBM E-score
ATAGGCTC	-0.044
CCGAAACG	-0.0141
CGTAGTGC	-0.0508
GGAAGCCA	-0.224
CCGTGGTC	-0.13
CCGCACCA	0.0538
CCGAGCAA	0.0205
CAGATAGA	-0.0851
GATATGCC	0.0905
CGAGAACA	0.0277
GCTGTTTA	0.116
GATCCACA	0.00989
TGCCGGAA	0.09
AAATTCCG	0.174
CAGAATGC	-0.0645
CCTCTCCA	-0.335
AGCCGGTC	-0.014
GACGACTA	-0.0692
ACACTATC	0.115
TCACACCA	0.0935
CATAATTC	0.0611
ACGAGTCA	-0.129
AAATGTAC	0.129
CGTCTTCA	0.0593
ACGGGTGA	-0.125

Sequence	PBM E-score
GCCCACGC	-0.113
CGAAGAAA	0.115
TAAACTAA	0.186
AGTGATCC	-0.0446
AAAAAATC	0.0745
CAGTGATG	-0.00854
ACCTTCTC	-0.119
ACCTGCCG	-0.0997
GGGGGGAC	-0.488
CCGCTGAG	0.168
ACTTGGAC	0.0457
AGACATAG	0.0345
TCAATGAA	-0.0482
AGCGGCTA	0.0701
ATTGCGCC	-0.061
CAGTCAAG	-0.0975
GGATCCCA	-0.0273
GCACCTAC	-0.0844
TAGACCAA	0.053
AGAACACA	0.0837
AGGTTAGC	-0.248
CTATGTGA	-0.00217
CGAACATA	0.244
CCAGCCAA	0.0738
AGCTCACT	-0.0157

Sequence	PBM E-score
CTTAACGA	0.063
CGTGTTGA	0.0903
AGCTATCG	0.021
AGTTCGTG	0.102
CGTTGCTA	0.103
ACTACATG	0.0529
ATTTCATA	0.115
CGCGGCAA	0.124
CCTCGTAG	-0.125
GTACTTGA	-0.119
CAGTCGGC	-0.193
ACAAAGAG	-0.0509
ATCTACGG	0.0751
CGGATACG	0.146
GTCAGGCA	-0.0221
CCCTAGCC	-0.149
CTTTAGGC	-0.2
ACGTACAA	-0.129
CGTGGCAC	0.0211
CAGAGTCC	-0.0501
CCCAGCTC	-0.115
GAATCCTC	-0.228
CTCAACGA	-0.0873
ATGACGCA	0.0934
ATGGGAGG	-0.061

Sequence	PBM E-score
GCCCGGCA	-0.176
AAATGGCT	-0.029
ATTCAATG	0.114
AAGGTTAC	0.0461
GCTTTCCC	-0.0589
CTTGTACC	0.0286
TACAGCGA	-0.186
CGGGTGTA	-0.0514
AGCTCGTA	-0.0393
TGCATGCA	0.184
ATCGTCTC	0.0796
ACTACTAC	0.0727
ATGACCCC	-0.219
AGAAATGA	0.172
TACCAGAA	0.0721
CGTTCGAC	0.0224
ACCGACTC	-0.0642
TAAAATGA	0.232
CCAGTGGC	0.0328
CTATTACC	-0.0596
ACGGGTAC	-0.108
AAGTAGAG	-0.0745
GGGCTGAC	0.0304
AATAAGTG	0.0346
AGCTTCTA	-0.107

Sequence	PBM E-score
ACACATCT	-0.054
CCCACTAA	-0.031
AAGGTCGG	-0.192
ACCCACAA	0.17
GACTGACC	-0.248
TCCATTCA	0.0832
CAACTCGG	-0.067
AGAGCAGC	-0.158
CCGTCGGA	0.0224
AGTGCCAT	-0.134
GACCAATA	0.0156
GCACTAGC	-0.0944
CCGCCCTC	-0.196
GGCTGCTA	-0.164
CTAGCTGC	-0.218
CAAGTTTC	0.0233
ACCATGCT	-0.0622
AAAGGTGT	-0.0959
CAGGACTC	-0.117
CCCCAGAG	-0.245
ACCCACTC	-0.114
AATTGACT	0.165
CCTTATTA	0.211
AAGGCATT	-0.177
GACGACGC	-0.0628

An excerpt of these results, bar-delimited.
Sequence | PBM E-score
ACTTGGAC | 0.0457
CAGAGTCC | -0.0501

Quoted from the entries so far (seven entries):
Sequence	PBM E-score
CGTTCGAC	0.0224
ACCGACTC	-0.0642
TAAAATGA	0.232
CCAGTGGC	0.0328
CTATTACC	-0.0596
ACGGGTAC	-0.108
AAGTAGAG	-0.0745

Next part.

Sequence	PBM E-score
CGTGTCAC	0.109
ATCGGCCA	-0.114
ACCAGCCA	-0.206
CACGTACC	0.044
ATACGTCA	0.00668
ATGTTCTA	-0.0863
AAACTTGC	0.114
ACCTCCCA	-0.257
AGCGGTCG	-0.208
AATTCATC	-0.0519
GTTCACCA	-0.067
GCGAAGAC	-0.143
CGTTCTTC	-0.0653
GAAAACCC	-0.0328
AGCCCCAG	-0.187
AATGAGCA	0.012
CCCCACCG	-0.32
GATATTGC	-0.0626
CGGGCATC	-0.267
GATAATAA	0.0805
CGGAAGTA	0.00016
CCGTAGAG	-0.186
CGCTAAAC	0.0788
CAGTAAGC	0.132
ATGCCCAG	-0.162

Sequence	PBM E-score
GCCGAAGC	-0.271
AGGTGCCG	0.0918
AATTTTAT	0.295
ACCAATGA	0.0394
CACCATTC	-0.173
AGGAGTAC	-0.141
CCCAAGGG	-0.395
GTGACGAA	0.0988
ACCGGGAC	-0.073
AATAAGAG	0.0662
AGTCCGAA	-0.0964
ATAGTTGG	-0.00716
CCTTGCAA	-0.097
GCTGTGAA	0.0992
TGCGTAAA	0.0705
TATGCTCA	0.0318
ATGTCCAA	0.00741
AGTAGTCG	0.152
ATTCAAAC	0.073
ACGGGAGA	-0.143
CCCAACCA	-0.0542
ACAGGTTA	-0.015
